Reference: patent US9340580B2 (priority 2007, dated 2016)
Where a sequence shows no end group, the ends are not given. Strings that start with PEPTIDE1 are HELM notation: dots part the residues, brackets hold end groups and non-standard residues. Where no end group is shown, it is not given here.

Assay: general procedure: peptide synthesis; dicyclohexylcarbodiimide and 1-hydroxybenzotriazole
Details: whole synthesis

Substance | purity (crude or final not stated) [%]
CIIHRGKPFQLEA | 77.4
DDVVSMEYDLAYK | 84.9
DGLEVDVPGIDPNACH (listed as Dermatophagoides pteronyssinus) | 66.7
DKFERHIGIIDLK | 81.4
DTVRAEMTKVLAP | 69.5
EAVFEANQNTKTAK | 90.3
HDDVVSMEYDLAYKL | 80.9
IDLKGELDMRNIQ | 68.7
IDLRQMRTVTPIR | 79.2
KPFQLEAVFEANQNT | 88.7
KPFQLEAVFEANQNTK | 90.1
LDMRNIQVRGLKQ | 70.3
PEPTIDE1{A.K.I.E.I.K.A.S.L.D.G.L.E}$$$$V2.0 | 65.9
PEPTIDE1{A.N.V.K.S.E.D.G.V.V.K.A.H}$$$$V2.0 | 76.5
PEPTIDE1{D.Q.V.D.V.K.D.C.A.N.H.E.I.K.K}$$$$V2.0 | 81.4
PEPTIDE1{E.T.F.D.P.M.K.V.P.D.H.S.D.K}$$$$V2.0 | 91.7
PEPTIDE1{E.T.F.D.P.M.K.V.P.D.H.S.D}$$$$V2.0 | 84.7
PEPTIDE1{E.Y.I.Q.H.N.G.V.V.Q.E.S.Y}$$$$V2.0 | 77.5
PEPTIDE1{H.I.G.I.I.D.L.K.G.E.L.D.M.R.N}$$$$V2.0 | 66.4
PEPTIDE1{I.D.L.K.G.E.L.D.M.R.N.I.Q.V.R}$$$$V2.0 | 85.2

Substance | purity (crude or final not stated) [%]
PEPTIDE1{I.G.I.K.D.L.D.A.F.R.H.Y.D}$$$$V2.0 | 77.6
PEPTIDE1{K.A.V.D.E.A.V.A.A.I.E.K.S}$$$$V2.0 | 86.8
PEPTIDE1{K.D.L.D.A.F.R.H.Y.D.G.R.T}$$$$V2.0 | 72.9
PEPTIDE1{K.R.V.G.D.A.N.V.K.S.E.D.G}$$$$V2.0 | 82.9
PEPTIDE1{K.S.E.T.F.D.P.M.K.V.P.D.H.S.D}$$$$V2.0 | 92.5
PEPTIDE1{N.K.I.R.E.A.L.A.Q.T.H.S.A}$$$$V2.0 | 87.6
PEPTIDE1{N.S.V.N.V.P.S.E.L.D.L.R.S.L.R.T}$$$$V2.0 | 74.5
PEPTIDE1{P.N.V.N.K.I.R.E.A.L.A.Q.T}$$$$V2.0 | 88.6
PEPTIDE1{R.N.S.W.D.T.N.W.G.D.N.G.Y.G}$$$$V2.0 | 70.0
PEPTIDE1{R.T.I.I.Q.R.D.N.G.Y.Q.P.N.Y}$$$$V2.0 | 70.7
REALAQTHSAIAVI | 69.6
RGKPFQLEAVFEANQNT | 82.6
RGLKQMKRVGDAN | 84.0
RNIQVRGLKQMKRVG | 74.7
RNQSLDLAEQELVDCASQH | 60.1
RTVTPIRMQGGCG | 79.6
RYVAREQSCRRPN | 79.7
TAIFQDTVRAEMTK | 79.1
VSMEYDLAYKLGDLH | 66.9
